In publication PMC8345219 (Cancers, 2021):

Assay: general procedure: Fmoc solid-phase peptide synthesis; Wang resin or 2-chlorotrityl chloride resin; oxyma/DIC
Conditions: whole synthesis, scale of the general procedure 15 µmol

Final HPLC purity, >95%:
GFLGYFP(xQFAFC) (cyclic; GFLG linker)
H-YFP[d(hCys)]QFAFC-OH (disulfide 4-9)
H-YFP[dC]QFAFC-OH (disulfide 4-9; SMILES C[C@@H]1NC(=O)[C@H](Cc2ccccc2)NC(=O)[C@H](CCC(N)=O)NC(=O)[C@H](NC(=O)[C@@H]2CCCN2C(=O)[C@H](Cc2ccccc2)NC(=O)[C@@H](N)Cc2ccc(O)cc2)CSSC[C@@H](C(=O)O)NC(=O)[C@H](Cc2ccccc2)NC1=O)
Mtx-GFLGK(Ac)YFP(xQFAFC)
PEPTIDE1{Y.F.P.G.Q.F.A.F.S}$$$$V2.0
PEPTIDE1{Y.F.P.[dC].Q.F.[XKTam].F.C}$PEPTIDE1,PEPTIDE1,4:R3-9:R3$$$V2.0
PEPTIDE1{[XTam].Y.F.P.G.Q.F.A.F.S}$$$$V2.0
PEPTIDE1{[dY].F.P.[dC].Q.F.[XKTam].F.C}$PEPTIDE1,PEPTIDE1,4:R3-9:R3$$$V2.0
Tam-EG(4)-YFP(xQFAFC)
Tam-EG(4)-YFPGQFAAS (Tam-EG(4) N-terminal label)
Tam-YFP(c(CH2)QFAFC)
Tam-YFP(c(CH2)QFAFX)
Tam-YFP(c(CH2)QFCFS)
X1-YFP[dC]QFAFC-OH (disulfide 4-9)
X1-YFP[dC]QFCFS-OH (disulfide 4-7)
YFP(c(CH2)QFAFC)

One purity is given for all peptides; the source may state it once. HELM strings list residues between dots; [ac] is acetyl, [am] amide, other brackets name non-standard units. Bridges are numbered along the chain shown (N, C = ends). [ ]: non-standard residue; d: D form. The star is where a group is joined. X1 = CN(C)c1ccc2c(c1)Oc1cc(N(C)C)ccc1C21OC(=O)c2ccc(C(=O)*)cc21; d(hCys) = N[C@H](CCS)C(=O)O
